The target in this assay is FLAG-tagged WT APE1 (human apurinic/apyrimidinic endonuclease) (human) (UniProt P27695). The assay is described as follows: co-IP; nuclear extract of HEK293T cells overexpressing FLAG-tagged WT or K5R APE1, treated with TSA-nicotinamide for 6 h or not; precipitated with anti-FLAG Ab, blotted with anti-XRCC1 and anti-FLAG.

Protein sequences, listed by entry. Tags and fused reporters are not part of them.
UniProt P27695: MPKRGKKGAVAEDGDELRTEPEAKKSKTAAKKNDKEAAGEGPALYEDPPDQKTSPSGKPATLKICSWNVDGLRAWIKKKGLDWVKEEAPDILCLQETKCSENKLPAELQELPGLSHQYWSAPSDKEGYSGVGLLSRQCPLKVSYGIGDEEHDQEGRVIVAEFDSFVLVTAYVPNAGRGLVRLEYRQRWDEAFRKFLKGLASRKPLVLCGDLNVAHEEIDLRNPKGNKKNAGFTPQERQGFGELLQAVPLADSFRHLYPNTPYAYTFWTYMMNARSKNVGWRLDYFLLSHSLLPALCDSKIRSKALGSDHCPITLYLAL
UniProt P18887: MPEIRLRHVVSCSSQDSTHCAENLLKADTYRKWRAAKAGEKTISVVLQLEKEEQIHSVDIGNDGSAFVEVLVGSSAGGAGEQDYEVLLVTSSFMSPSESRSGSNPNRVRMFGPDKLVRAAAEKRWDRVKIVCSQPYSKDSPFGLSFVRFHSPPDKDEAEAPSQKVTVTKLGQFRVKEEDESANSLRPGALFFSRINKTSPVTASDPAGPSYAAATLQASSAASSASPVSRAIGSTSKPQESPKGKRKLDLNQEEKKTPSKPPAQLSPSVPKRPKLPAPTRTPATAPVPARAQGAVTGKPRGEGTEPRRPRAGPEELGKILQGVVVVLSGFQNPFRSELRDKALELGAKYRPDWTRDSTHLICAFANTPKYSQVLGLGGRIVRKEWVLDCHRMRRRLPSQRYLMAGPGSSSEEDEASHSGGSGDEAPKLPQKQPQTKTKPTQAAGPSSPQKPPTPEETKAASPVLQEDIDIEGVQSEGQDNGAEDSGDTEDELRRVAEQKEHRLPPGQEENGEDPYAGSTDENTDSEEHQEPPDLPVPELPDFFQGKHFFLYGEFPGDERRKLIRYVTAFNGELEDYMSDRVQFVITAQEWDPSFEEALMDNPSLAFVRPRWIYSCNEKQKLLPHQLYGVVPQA

These are yes or no findings as the source states them, for the method shown. Binding seen in cells or lysates may run through a third protein. Some results given as binding are weak or reduced against the parent protein; the word gives no strength.

As to “XRCC1 (from UniProt P18887 1-633) (other; other documents disagree on this pair)”, the binding entry is listed as “binds”.

The values are drawn from PMC5335514.
